Test results taken from article PMC6925144, “A prospective compound screening contest identified broader inhibitors for Sirtuin 1” (Scientific Reports, 2019).
Whole data set: some 3,200 compounds, median “TSA(with NAD+) / Primary screening (TSA) / delta Tm (K)” near -0.04, cut for the highest 2% near 0.37. Some of the results follow.

By UniProt entry, the sequences of proteins in these tests, tags left out. Residues count along the entry.
UniProt Q96EB6, 2-747 limits assumed: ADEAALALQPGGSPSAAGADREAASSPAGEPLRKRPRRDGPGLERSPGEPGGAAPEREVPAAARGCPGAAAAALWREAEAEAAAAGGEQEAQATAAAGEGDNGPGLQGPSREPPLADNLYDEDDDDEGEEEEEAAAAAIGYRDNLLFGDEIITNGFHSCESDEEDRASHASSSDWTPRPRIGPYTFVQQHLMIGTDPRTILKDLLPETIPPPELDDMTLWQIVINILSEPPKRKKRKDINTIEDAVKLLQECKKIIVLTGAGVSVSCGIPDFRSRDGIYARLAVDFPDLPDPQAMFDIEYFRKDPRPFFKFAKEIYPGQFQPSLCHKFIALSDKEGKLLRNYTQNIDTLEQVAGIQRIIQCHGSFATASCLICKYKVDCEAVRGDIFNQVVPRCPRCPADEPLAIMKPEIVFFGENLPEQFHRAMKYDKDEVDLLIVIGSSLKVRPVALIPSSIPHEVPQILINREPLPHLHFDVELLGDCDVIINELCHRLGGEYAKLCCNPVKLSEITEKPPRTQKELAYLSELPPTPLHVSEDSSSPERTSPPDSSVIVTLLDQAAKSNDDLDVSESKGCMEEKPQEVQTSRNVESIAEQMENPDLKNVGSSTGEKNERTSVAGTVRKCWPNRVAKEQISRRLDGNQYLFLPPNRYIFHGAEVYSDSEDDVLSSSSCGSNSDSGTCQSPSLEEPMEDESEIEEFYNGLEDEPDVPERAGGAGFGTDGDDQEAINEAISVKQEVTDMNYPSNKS

Molecular target: NAD-dependent deacetylase Sirtuin 1 (human, UniProt Q96EB6)
Test: primary screen, delta tm
Set-up: single well (n = 1, as 'the same TSA')
Conditions: 10 µM

SMILES | TSA(with NAD+) / Primary screening (TSA) / delta Tm (K)
Cc1cc2ncn(CC(NC(=O)C3CC3c3cccnc3)C3CC3)c2cc1C (stereo not shown) | 0.01
CCOc1cc(CN(C)C(C)C(=O)Nc2cc(C)no2)ccc1OC(F)F (stereo not shown) | -0.09
COc1cc(CN(C)C(=O)c2cccc(S(C)(=O)=O)c2)ccc1OCc1ccccc1 | 0.08
c1ccc(-n2ncc3c(-n4ccnc4)ncnc32)cc1 | -0.11
OCC1(Nc2ncnc3ccsc23)CCC1 | -0.18
CCOC(=O)c1c(C2CC2)csc1NC(=O)COC(=O)C1CC(=O)N(c2ccccc2C(C)CC)C1 (stereo not shown) | -0.25
O=C(CN1CCN(c2ncnc3ccsc23)CC1)Nc1ccccc1Cl | -0.03
COc1cccc(C2C(C(=O)c3ccco3)=C(O)C(=O)N2CCCN2CCOCC2)c1 (stereo not shown) | -0.09
CCCN(C(=O)CSc1nnc(NCc2ccco2)s1)C1=CCCCC1 | 0.15
c1ccc2c3c([nH]c2c1)C1(CCCCC1)NCC3 | 0.01
O=C(Cn1cnc2ccccc2c1=O)Nc1ccc(N2CCN(Cc3ccccc3)CC2)cc1 | -0.16
O=c1oc2cc(Cl)ccc2n1Cc1nc(-c2ccco2)no1 | 0.07
CN(c1ccccc1)S(=O)(=O)c1cccc(C(=O)Nc2ccccc2-c2nc3ccccc3[nH]2)c1 | 0.38
Cc1ccc(N(C)S(=O)(=O)c2cccc(C(=O)OC(C)C(N)=O)c2)cc1 (stereo not shown) | -0.08
O=C(NCC(c1ccccc1)c1c[nH]c2ccccc12)C1=COCCO1 (stereo not shown) | -0.03
CCc1sc(C(=O)Nc2cc(C(N)=O)ccc2N2CCCC2)cc1C | -0.09
NC(=O)c1ccc(Cl)c(NC(=O)c2nn(-c3ccccc3)c3c2CCC3)c1 | 0.06
CCCCn1c(N)c(N(CCOC)C(=O)c2cccc(S(=O)(=O)N(C)c3ccc(C)cc3)c2)c(=O)[nH]c1=O | -0.12
Cc1ccc(C)c(N2C(=O)c3ccc(C(=O)Nc4ccc(Oc5ncccn5)cc4)cc3C2=O)c1 | 0.06
O=[N+]([O-])c1ccc(/C=C/Br)o1 | -0.01
Cc1c(-c2ccccc2)sc(NC(=O)C2=COCCO2)c1C(=O)N1CCOCC1 | 0.06
CN1C(=O)C(C(=O)c2cn(C)c3ccccc23)C(=O)N(C)C1=O | -0.01
Cc1ccc(N(C)S(=O)(=O)c2cccc(C(=O)OCc3cc(=O)oc4cc(C)ccc34)c2)cc1 | 0.06
COC(C)C(=O)O (stereo not shown) | -0.03
CCOc1ccc(NC(=O)CN(C)C(=O)/C=C/c2ccc(S(=O)(=O)N3CCCCCC3)cc2)cc1OCC | -0.03

Quoted at random: 2 records from the list, in no set order.
SMILES | TSA(with NAD+) / Primary screening (TSA) / delta Tm (K)
NC(=O)c1ccc(Cl)c(NC(=O)c2nn(-c3ccccc3)c3c2CCC3)c1 | 0.06
CCOc1ccc(NC(=O)CN(C)C(=O)/C=C/c2ccc(S(=O)(=O)N3CCCCCC3)cc2)cc1OCC | -0.03
